No constants are given. Whether binding was seen depends on the method and setting. Some binding calls cover weakened binding; strength is not graded here.
Key:
CD45 (R&D Systems) [1] = biological target: CD45 (R&D Systems) (UniProt P08575); test: plate assay: biotinylated HAS-Gal-1 (25 ng) on coated CD45, streptavidin-HRP
CD45 (R&D Systems) [2] = biological target: CD45 (R&D Systems) (UniProt P08575); test: plate assay: biotinylated HAS-Gal-1 on coated CD45, streptavidin-HRP
CD45 (R&D Systems) [3] = biological target: CD45 (R&D Systems) (UniProt P08575); test: plate assay: biotinylated HAS-Gal-3 on coated CD45, streptavidin-HRP

Protein sequences, listed by entry. Tags and fused reporters are not part of them. Lines headed by an entry give the natural chain unless they say otherwise; changes in a name come on top. Residues count along the entry.
UniProt P08575, residues 26-577: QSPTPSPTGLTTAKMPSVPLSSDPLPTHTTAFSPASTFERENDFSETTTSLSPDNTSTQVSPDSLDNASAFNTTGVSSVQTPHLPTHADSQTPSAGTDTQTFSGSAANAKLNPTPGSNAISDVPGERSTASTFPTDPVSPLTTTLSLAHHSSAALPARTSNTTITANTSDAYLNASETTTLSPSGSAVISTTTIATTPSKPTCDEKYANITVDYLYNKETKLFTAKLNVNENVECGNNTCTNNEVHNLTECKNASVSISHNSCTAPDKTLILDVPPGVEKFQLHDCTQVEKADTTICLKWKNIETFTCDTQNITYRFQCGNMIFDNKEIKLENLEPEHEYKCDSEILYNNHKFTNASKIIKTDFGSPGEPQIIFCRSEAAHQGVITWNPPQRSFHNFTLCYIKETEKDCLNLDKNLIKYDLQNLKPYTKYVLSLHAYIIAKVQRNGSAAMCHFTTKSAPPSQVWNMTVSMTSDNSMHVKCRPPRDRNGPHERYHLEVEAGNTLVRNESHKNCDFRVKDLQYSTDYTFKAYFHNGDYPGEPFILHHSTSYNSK
UniProt P09382: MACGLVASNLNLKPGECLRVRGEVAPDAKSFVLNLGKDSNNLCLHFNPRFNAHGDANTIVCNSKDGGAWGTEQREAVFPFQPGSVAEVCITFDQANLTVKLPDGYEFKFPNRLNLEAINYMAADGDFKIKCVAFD
UniProt P17931: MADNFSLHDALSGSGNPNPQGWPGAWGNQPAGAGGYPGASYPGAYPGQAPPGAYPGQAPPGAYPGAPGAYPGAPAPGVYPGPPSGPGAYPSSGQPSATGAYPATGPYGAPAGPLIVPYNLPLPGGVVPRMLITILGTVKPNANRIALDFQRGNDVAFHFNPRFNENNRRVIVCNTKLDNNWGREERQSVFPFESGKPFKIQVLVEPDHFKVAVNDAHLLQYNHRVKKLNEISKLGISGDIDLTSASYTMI

| binding (CD45 (R&D Systems) [1]) | binding (CD45 (R&D Systems) [2]) | binding (CD45 (R&D Systems) [3]) | Substance |
| --- | --- | --- | --- |
| binds | binds | – | Biotinylated His-Avi-SUMO tagged galectin-1 (HAS-Gal-1) (from UniProt P09382 2-135) (ligand) |
| – | – | binds | Biotinylated His-Avi-SUMO tagged galectin-3 (HAS-Gal-3) (from UniProt P17931 2-250) (ligand) |

From patent publication US20170343552A1
